In PMC9980208 one finds binding data, which are given here for six molecules.

Chains of the proteins cited; added tags and fusions are not shown. Lines headed by an entry give the natural chain unless they say otherwise; changes in a name come on top.
UniProt P38432: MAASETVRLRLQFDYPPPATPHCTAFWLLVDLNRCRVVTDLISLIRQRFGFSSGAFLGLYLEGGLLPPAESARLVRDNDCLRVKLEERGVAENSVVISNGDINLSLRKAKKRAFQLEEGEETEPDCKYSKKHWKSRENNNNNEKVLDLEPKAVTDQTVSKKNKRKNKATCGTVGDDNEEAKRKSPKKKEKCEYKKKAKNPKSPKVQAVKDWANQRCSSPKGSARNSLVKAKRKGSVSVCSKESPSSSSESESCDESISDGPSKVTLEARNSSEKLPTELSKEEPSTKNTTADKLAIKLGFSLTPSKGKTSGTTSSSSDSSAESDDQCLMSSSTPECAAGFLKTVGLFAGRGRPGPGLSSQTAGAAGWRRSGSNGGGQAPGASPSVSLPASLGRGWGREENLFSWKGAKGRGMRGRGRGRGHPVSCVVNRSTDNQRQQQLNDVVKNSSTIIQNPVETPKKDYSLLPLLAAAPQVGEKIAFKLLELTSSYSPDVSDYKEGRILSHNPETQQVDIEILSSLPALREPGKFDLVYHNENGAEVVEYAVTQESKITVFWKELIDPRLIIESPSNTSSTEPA
UniProt P62318: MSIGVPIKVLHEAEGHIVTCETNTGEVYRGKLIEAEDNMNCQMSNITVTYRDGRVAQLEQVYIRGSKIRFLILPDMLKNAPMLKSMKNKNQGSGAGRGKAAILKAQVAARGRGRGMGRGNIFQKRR

The target in experiment [1] is GFP-fused TDRD1-ΔcTD4 (full-length TDRD1 without the core Tudor 4 domain) (human) (UniProt Q9BXT4). Description: co-IP; HeLa cells, GFP-tagged TDRD1 constructs and Flag-tagged SNRPD3 constructs.
Experiment [2] concerns the target GFP-fused TDRD1-ΔDYGN (full-length TDRD1 without the 4 conserved residues DYGN of cTD4) (human) (UniProt Q9BXT4). The description is as above.
In experiment [3] the target is Flag-tagged human Coilin (human) (UniProt P38432). Description: co-IP; GFP-tagged TDRD1 or eTD4 constructs and Flag-tagged Coilin constructs (Figure 6B, C, E, G, H); cell line not stated.
Experiment [4] has as its target T1, GFP-fused full-length TDRD1 (Tudor Domain Containing 1) (human) (UniProt Q9BXT4).
T1 sequence: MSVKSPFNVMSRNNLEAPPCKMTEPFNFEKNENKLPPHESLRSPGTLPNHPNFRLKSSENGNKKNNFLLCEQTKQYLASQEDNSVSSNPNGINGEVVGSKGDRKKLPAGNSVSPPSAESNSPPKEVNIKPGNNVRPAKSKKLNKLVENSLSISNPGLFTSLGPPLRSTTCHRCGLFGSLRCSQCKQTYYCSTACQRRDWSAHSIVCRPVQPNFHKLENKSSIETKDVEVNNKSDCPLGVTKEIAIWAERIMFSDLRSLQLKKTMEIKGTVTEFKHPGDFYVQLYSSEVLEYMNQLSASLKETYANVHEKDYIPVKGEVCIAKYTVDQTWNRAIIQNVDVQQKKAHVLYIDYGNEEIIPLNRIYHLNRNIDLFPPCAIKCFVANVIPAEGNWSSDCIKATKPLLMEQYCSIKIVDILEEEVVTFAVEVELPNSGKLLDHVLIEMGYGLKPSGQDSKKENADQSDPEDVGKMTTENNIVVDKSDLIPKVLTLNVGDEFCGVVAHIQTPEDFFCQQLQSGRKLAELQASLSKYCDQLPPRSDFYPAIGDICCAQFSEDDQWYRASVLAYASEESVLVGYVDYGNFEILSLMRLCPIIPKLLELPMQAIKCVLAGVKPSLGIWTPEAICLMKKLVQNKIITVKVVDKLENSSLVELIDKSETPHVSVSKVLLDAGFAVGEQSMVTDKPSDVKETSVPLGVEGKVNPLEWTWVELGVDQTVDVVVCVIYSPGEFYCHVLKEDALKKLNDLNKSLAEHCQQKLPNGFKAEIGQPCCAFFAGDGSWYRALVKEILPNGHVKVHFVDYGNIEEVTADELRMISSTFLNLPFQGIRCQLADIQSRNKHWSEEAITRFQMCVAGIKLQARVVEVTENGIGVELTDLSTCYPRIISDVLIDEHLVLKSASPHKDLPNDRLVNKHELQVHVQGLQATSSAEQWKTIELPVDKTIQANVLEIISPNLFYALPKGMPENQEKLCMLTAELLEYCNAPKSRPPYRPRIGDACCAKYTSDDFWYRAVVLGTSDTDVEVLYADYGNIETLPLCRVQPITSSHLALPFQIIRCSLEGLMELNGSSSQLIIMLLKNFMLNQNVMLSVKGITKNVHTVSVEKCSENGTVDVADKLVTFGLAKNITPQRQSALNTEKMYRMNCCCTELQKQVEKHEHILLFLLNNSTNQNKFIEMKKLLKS
Description: co-IP; HeLa cells, GFP-tagged TDRD1 constructs and Flag-tagged SNRPD3 constructs.

Experiment [5] deals with GFP-fused TDRD1-ΔcTD4 (full-length TDRD1 without the core Tudor 4 domain) (human) (UniProt Q9BXT4). Put plainly: co-IP; 22Rv1 cells transfected with TDRD1 constructs, then treated with 15 uM of antiandrogens for 6 hours before harvesting.
For experiment [6], the target named is Flag-tagged Coilin with the RG box deleted (human) (UniProt P38432). Description: co-IP; GFP-tagged TDRD1 or eTD4 constructs and Flag-tagged Coilin constructs (Figure 6B, C, E, G, H); cell line not stated.

These are yes or no findings as the source states them, for the method shown. In cells and extracts the contact can be indirect. For some of these results: Binding can be weak; no strength is given. For some of these results: Where a sequence is shown, tags or fusion partners need not be part of it.

Regarding “Flag-tagged wild-type SNRPD3 (from UniProt P62318 1-126)”, the binding entry in experiment [1] and in experiment [2] was “no binding” each time.

Regarding “GFP-fused TDRD1-ΔcTD4 (full-length TDRD1 without the core Tudor 4 domain) (from UniProt Q9BXT4)”, in experiment [3], the binding result was “binds”.

In the case of “Flag-tagged SNRPD3 R5K (from UniProt P62318)”, the binding entry in experiment [4] is recorded as “no binding”.

On to “endogenous SNRPD3 (from UniProt P62318 1-126)”, for which the binding entry in experiment [5] is reported as “no binding”.

B1: GFP-fused full-length TDRD1 (Tudor Domain Containing 1) (protein, UniProt Q9BXT4 1-1180)
chain: MSVKSPFNVMSRNNLEAPPCKMTEPFNFEKNENKLPPHESLRSPGTLPNHPNFRLKSSENGNKKNNFLLCEQTKQYLASQEDNSVSSNPNGINGEVVGSKGDRKKLPAGNSVSPPSAESNSPPKEVNIKPGNNVRPAKSKKLNKLVENSLSISNPGLFTSLGPPLRSTTCHRCGLFGSLRCSQCKQTYYCSTACQRRDWSAHSIVCRPVQPNFHKLENKSSIETKDVEVNNKSDCPLGVTKEIAIWAERIMFSDLRSLQLKKTMEIKGTVTEFKHPGDFYVQLYSSEVLEYMNQLSASLKETYANVHEKDYIPVKGEVCIAKYTVDQTWNRAIIQNVDVQQKKAHVLYIDYGNEEIIPLNRIYHLNRNIDLFPPCAIKCFVANVIPAEGNWSSDCIKATKPLLMEQYCSIKIVDILEEEVVTFAVEVELPNSGKLLDHVLIEMGYGLKPSGQDSKKENADQSDPEDVGKMTTENNIVVDKSDLIPKVLTLNVGDEFCGVVAHIQTPEDFFCQQLQSGRKLAELQASLSKYCDQLPPRSDFYPAIGDICCAQFSEDDQWYRASVLAYASEESVLVGYVDYGNFEILSLMRLCPIIPKLLELPMQAIKCVLAGVKPSLGIWTPEAICLMKKLVQNKIITVKVVDKLENSSLVELIDKSETPHVSVSKVLLDAGFAVGEQSMVTDKPSDVKETSVPLGVEGKVNPLEWTWVELGVDQTVDVVVCVIYSPGEFYCHVLKEDALKKLNDLNKSLAEHCQQKLPNGFKAEIGQPCCAFFAGDGSWYRALVKEILPNGHVKVHFVDYGNIEEVTADELRMISSTFLNLPFQGIRCQLADIQSRNKHWSEEAITRFQMCVAGIKLQARVVEVTENGIGVELTDLSTCYPRIISDVLIDEHLVLKSASPHKDLPNDRLVNKHELQVHVQGLQATSSAEQWKTIELPVDKTIQANVLEIISPNLFYALPKGMPENQEKLCMLTAELLEYCNAPKSRPPYRPRIGDACCAKYTSDDFWYRAVVLGTSDTDVEVLYADYGNIETLPLCRVQPITSSHLALPFQIIRCSLEGLMELNGSSSQLIIMLLKNFMLNQNVMLSVKGITKNVHTVSVEKCSENGTVDVADKLVTFGLAKNITPQRQSALNTEKMYRMNCCCTELQKQVEKHEHILLFLLNNSTNQNKFIEMKKLLKS
As to B1, the binding entry in experiment [6] was “no binding”.

B2: GFP-fused TDRD1 eTD4 (a.a. 911-1180) (domain or fragment, UniProt Q9BXT4 911-1180)
chain: NKHELQVHVQGLQATSSAEQWKTIELPVDKTIQANVLEIISPNLFYALPKGMPENQEKLCMLTAELLEYCNAPKSRPPYRPRIGDACCAKYTSDDFWYRAVVLGTSDTDVEVLYADYGNIETLPLCRVQPITSSHLALPFQIIRCSLEGLMELNGSSSQLIIMLLKNFMLNQNVMLSVKGITKNVHTVSVEKCSENGTVDVADKLVTFGLAKNITPQRQSALNTEKMYRMNCCCTELQKQVEKHEHILLFLLNNSTNQNKFIEMKKLLKS
Turning to B2, the binding entry in experiment [6] is given as “no binding”.
